# Reference: the supplement of paper PMC12819154, “High-throughput peptide-centric local stability assay extends protein–ligand identification to membrane proteins, tissues and bacteria” (Nature Structural & Molecular Biology, 2025)
# By UniProt entry, the sequences of proteins in these tests, tags left out. Where a name states a change or a piece, a line headed by the entry shows the natural chain unless it says otherwise.
# UniProt P14625, whole entry: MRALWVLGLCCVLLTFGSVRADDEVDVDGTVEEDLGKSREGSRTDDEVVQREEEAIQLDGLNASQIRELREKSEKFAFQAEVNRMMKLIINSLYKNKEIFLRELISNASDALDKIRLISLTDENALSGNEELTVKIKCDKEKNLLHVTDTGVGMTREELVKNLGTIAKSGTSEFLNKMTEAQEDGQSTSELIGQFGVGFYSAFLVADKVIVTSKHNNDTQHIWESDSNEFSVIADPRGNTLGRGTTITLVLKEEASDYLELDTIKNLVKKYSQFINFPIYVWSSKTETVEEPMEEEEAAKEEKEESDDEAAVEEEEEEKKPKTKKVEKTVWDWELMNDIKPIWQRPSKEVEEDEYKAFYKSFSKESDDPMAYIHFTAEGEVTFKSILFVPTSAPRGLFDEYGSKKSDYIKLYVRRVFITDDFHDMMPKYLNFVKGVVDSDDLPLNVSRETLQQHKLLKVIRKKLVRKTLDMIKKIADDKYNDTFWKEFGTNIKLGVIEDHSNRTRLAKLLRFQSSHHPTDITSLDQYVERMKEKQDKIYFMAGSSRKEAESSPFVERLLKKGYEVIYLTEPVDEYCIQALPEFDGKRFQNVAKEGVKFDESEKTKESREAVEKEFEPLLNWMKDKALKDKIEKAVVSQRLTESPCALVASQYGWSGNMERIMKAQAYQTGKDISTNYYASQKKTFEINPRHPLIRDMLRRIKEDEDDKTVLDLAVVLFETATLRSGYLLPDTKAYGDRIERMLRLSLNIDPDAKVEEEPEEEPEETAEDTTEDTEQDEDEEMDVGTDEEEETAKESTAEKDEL
# UniProt P22415: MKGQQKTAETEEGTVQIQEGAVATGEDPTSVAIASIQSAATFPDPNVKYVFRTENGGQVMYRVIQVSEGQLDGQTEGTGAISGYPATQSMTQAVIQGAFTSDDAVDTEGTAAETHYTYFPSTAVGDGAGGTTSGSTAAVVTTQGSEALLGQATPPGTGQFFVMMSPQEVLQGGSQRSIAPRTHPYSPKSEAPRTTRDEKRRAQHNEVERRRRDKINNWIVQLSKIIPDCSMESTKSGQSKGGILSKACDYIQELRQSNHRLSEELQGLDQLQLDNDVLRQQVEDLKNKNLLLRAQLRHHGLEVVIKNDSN
# UniProt P21359: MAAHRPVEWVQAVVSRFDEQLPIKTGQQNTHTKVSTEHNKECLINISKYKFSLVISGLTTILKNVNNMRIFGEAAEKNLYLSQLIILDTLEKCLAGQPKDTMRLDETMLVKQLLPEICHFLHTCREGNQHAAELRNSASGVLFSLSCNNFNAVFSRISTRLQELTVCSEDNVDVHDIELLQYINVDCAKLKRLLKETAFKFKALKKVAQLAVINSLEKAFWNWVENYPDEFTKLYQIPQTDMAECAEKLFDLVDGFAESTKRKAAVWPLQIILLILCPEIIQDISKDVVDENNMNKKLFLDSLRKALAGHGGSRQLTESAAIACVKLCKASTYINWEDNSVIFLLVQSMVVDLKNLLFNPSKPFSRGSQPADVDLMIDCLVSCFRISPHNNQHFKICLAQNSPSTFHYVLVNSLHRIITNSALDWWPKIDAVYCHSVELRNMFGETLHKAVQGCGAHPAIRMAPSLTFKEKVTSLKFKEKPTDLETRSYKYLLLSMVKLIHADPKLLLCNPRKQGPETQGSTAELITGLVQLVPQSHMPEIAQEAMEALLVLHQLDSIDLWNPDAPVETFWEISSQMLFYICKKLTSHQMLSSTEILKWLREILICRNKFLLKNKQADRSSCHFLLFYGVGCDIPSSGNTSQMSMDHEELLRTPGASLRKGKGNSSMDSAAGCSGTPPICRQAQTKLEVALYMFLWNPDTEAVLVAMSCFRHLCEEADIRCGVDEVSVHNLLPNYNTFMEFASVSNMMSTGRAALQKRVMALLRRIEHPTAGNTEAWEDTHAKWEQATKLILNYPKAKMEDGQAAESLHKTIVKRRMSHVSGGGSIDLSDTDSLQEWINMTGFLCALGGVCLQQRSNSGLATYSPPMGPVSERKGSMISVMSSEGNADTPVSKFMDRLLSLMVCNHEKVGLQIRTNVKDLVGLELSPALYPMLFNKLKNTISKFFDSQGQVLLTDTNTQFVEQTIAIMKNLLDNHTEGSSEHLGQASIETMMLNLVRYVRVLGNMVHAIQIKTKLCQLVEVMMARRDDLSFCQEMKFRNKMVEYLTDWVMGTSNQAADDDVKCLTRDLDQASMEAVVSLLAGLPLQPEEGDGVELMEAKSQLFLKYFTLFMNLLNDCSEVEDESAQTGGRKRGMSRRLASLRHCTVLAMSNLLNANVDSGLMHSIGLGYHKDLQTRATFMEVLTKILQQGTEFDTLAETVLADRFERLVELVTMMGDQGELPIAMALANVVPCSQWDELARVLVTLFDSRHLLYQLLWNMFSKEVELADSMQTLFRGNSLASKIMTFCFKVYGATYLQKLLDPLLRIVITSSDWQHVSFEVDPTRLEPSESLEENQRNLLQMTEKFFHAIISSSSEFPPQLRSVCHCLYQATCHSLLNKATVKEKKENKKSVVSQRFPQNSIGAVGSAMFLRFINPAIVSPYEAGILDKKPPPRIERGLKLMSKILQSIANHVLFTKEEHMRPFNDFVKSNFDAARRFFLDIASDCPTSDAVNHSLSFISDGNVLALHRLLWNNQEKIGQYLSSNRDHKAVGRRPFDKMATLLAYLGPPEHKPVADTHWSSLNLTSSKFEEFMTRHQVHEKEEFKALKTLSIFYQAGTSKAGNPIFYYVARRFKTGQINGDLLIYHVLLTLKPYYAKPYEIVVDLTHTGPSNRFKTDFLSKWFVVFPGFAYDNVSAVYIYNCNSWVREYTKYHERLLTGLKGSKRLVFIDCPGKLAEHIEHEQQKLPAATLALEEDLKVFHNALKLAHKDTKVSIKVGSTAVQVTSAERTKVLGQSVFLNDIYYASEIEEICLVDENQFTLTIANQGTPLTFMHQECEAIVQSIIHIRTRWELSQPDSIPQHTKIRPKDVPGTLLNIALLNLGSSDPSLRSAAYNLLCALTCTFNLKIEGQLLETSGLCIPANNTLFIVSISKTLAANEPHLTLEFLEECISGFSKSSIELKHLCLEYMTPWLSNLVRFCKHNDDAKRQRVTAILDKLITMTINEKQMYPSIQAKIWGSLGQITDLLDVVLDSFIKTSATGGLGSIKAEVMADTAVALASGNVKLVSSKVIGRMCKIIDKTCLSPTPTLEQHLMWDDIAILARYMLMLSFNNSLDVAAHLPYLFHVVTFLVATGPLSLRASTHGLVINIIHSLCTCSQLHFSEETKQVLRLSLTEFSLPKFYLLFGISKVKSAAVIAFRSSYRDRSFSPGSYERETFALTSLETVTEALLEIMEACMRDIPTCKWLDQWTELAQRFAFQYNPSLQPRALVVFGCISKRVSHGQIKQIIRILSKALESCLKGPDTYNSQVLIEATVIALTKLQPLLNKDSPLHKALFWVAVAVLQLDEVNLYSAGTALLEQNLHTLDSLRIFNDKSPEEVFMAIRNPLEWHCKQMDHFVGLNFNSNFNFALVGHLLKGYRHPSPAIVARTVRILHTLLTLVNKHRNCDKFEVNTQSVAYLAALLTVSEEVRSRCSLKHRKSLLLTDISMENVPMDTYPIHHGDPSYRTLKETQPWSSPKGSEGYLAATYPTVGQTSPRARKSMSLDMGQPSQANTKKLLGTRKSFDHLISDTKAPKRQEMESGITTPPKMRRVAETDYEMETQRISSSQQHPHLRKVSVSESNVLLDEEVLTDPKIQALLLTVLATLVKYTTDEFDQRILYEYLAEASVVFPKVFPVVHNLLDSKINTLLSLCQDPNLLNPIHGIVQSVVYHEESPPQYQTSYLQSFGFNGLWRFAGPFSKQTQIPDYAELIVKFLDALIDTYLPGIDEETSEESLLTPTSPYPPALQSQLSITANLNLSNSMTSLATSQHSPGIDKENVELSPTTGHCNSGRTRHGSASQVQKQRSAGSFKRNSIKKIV
# UniProt P19544: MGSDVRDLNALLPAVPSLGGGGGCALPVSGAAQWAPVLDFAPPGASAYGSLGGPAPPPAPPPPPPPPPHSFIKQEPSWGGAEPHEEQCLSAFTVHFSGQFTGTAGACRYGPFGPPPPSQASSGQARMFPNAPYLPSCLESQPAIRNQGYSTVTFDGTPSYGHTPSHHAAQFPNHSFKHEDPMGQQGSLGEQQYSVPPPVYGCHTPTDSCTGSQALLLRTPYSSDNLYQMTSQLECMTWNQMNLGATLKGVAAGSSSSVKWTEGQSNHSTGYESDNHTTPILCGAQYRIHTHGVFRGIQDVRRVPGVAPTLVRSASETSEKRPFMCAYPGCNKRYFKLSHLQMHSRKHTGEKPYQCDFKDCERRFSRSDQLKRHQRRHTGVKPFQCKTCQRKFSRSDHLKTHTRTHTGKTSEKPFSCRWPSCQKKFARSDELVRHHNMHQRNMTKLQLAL
# UniProt P25963: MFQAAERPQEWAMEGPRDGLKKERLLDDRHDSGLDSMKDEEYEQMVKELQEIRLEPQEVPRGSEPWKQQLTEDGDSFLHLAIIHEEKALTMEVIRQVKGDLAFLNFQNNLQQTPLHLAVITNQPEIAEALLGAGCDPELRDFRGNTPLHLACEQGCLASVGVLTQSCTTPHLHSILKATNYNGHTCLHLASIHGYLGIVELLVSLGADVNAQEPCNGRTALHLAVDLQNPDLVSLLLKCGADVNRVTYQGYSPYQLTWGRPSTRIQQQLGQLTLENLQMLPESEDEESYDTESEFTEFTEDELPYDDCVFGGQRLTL
# UniProt P18085: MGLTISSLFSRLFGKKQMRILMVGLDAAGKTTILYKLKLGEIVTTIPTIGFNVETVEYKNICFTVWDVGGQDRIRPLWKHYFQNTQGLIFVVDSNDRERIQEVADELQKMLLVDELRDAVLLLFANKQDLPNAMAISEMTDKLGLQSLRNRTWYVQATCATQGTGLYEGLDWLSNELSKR
# UniProt P23588, whole entry: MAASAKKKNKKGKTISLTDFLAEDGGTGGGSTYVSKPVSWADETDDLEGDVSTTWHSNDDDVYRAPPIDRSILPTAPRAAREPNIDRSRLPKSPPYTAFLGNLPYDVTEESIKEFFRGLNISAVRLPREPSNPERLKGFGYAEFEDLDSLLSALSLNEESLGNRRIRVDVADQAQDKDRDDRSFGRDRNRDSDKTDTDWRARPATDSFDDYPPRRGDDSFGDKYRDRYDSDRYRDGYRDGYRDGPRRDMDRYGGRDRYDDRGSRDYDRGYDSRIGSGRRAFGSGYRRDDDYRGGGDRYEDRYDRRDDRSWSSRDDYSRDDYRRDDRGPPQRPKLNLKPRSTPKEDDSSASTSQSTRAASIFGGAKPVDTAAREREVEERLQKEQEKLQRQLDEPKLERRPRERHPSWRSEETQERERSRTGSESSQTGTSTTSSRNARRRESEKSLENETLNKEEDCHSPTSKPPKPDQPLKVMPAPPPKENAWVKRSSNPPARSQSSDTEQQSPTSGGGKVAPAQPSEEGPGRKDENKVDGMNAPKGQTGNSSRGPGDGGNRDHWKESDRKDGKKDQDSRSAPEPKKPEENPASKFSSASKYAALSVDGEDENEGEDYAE
# UniProt P15848: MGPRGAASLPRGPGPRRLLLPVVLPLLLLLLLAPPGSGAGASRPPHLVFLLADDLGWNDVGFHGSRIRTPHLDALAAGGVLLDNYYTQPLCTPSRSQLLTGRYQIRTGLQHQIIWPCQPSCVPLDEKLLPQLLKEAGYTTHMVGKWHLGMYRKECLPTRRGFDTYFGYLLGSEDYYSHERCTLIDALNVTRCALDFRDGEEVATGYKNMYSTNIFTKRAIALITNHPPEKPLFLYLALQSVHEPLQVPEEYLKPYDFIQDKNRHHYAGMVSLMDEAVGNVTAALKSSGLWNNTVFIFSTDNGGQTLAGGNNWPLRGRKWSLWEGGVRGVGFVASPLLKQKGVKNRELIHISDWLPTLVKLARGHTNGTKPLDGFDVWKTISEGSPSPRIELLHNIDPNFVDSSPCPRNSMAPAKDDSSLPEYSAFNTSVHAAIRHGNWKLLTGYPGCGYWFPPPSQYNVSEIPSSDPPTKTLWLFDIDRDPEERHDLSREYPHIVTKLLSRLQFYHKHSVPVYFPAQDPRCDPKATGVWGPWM
# UniProt P23769: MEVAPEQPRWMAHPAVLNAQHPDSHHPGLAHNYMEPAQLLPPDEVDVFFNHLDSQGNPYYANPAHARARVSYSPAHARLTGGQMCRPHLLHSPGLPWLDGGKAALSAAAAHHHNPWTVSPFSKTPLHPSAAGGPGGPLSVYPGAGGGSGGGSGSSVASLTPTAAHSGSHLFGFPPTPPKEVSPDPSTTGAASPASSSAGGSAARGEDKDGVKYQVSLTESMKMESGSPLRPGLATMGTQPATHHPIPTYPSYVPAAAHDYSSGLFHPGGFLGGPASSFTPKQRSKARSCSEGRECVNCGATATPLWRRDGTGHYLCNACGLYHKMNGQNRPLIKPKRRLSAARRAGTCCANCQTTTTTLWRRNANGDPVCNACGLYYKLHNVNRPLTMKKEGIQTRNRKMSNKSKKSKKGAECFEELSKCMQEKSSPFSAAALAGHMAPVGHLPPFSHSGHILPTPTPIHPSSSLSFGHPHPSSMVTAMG
# Some of the results follow. Most entries show no effect beyond the scatter of the controls.
# Compound: CN[C@@H]1C[C@H]2O[C@@](C)([C@@H]1OC)n1c3ccccc3c3c4c(c5c6ccccc6n2c5c31)C(=O)NC4 [staurosporine]
# Experiment: log2 fold change of tryptic peptide abundance, ligand vs vehicle (limited proteolysis) (log2 ratio); higher = more trypsin-susceptible (destabilized)
# Conditions: ligand concentration: 20 uM; sample: K562 cleared lysate; digestion: 4 min, 22 C (HT-PELSA RT4min, Orbitrap Astral)
row,Target,log2 fold change
1,"HSP90B1 (peptide sequence: AQAYQTGKDISTNYYASQKK, peptide start residue: 664) (UniProt P14625)",-0.756
2,"USF1 (peptide sequence: TENGGQVMYR, peptide start residue: 53) (UniProt P22415)",-0.211
3,"UniProt P17812 (peptide sequence: IQAIAWAR, peptide start residue: 382)",-0.174
4,"CALB2 (peptide sequence: LLPVQENFLLK, peptide start residue: 170) (UniProt P22676)",0.305
5,"RPL13 (peptide sequence: IAPRPASGPIRPIVR, peptide start residue: 46) (UniProt P26373)",-0.122
6,"CHML (peptide sequence: TCMHTVSDKDGDKDESK, peptide start residue: 186) (UniProt P26374)",-0.989
7,"NF1 (peptide sequence: KVAQLAVINSLEK, peptide start residue: 206) (UniProt P21359)",-0.73
8,"ACAT1 (peptide sequence: VDFSKVPK, peptide start residue: 259) (UniProt P24752)",0.35
9,"TRIM27 (peptide sequence: HLANVTQLVK, peptide start residue: 70) (UniProt P14373)",0.308
10,"FDPS (peptide sequence: EVLEYNAIGGK, peptide start residue: 113) (UniProt P14324)",-0.321
11,"RAC2 (peptide sequence: LDLRDDKDTIEK, peptide start residue: 117) (UniProt P15153)",0.715
12,"CBR1 (peptide sequence: GQAAVQQLQAEGLSPR, peptide start residue: 43) (UniProt P16152)",0.298
13,"PSMC3 (peptide sequence: KMNVSPDVNYEELAR, peptide start residue: 372) (UniProt P17980)",0.196
14,"BTF3 (peptide sequence: QLTEMLPSILNQLGADSLTSLRR, peptide start residue: 142) (UniProt P20290)",-0.371
15,"NME2 (peptide sequence: EISLWFKPEELVDYK, peptide start residue: 129) (UniProt P22392)",-0.0741
16,"UniProt P19544 (peptide sequence: HHNMHQR, peptide start residue: 434)",0.593
17,"HPGD (peptide sequence: VALVTGAAQGIGR, peptide start residue: 7) (UniProt P15428)",0.124
18,"UniProt P24468 (peptide sequence: MLFSAVEWAR, peptide start residue: 219)",0.0737
19,"NFKBIA (peptide sequence: HDSGLDSMKDEEYEQMVK, peptide start residue: 30) (UniProt P25963)",0.623
20,"IRF2 (peptide sequence: CAMNSLPDIEEVKDK, peptide start residue: 83) (UniProt P14316)",-0.26
21,"ARF4 (peptide sequence: IQEVADELQK, peptide start residue: 100) (UniProt P18085)",0.414
22,"HNRNPL (peptide sequence: MGPPVGGHR, peptide start residue: 345) (UniProt P14866)",0.208
23,"UCHL3 (peptide sequence: FMERDPDELR, peptide start residue: 212) (UniProt P15374)",-0.442
24,"EIF4B (peptide sequence: LPREPSNPER, peptide start residue: 126) (UniProt P23588)",0.951
25,"UniProt P24928 (peptide sequence: QDVIEVIEK, peptide start residue: 711)",-0.813
26,"SNRPB (peptide sequence: HMNLILCDCDEFRK, peptide start residue: 37) (UniProt P14678)",-0.201
27,"ARSB (peptide sequence: GVGFVASPLLK, peptide start residue: 328) (UniProt P15848)",-0.307
28,"GATA2 (peptide sequence: AALSAAAAHHHNPWTVSPFSK, peptide start residue: 103) (UniProt P23769)",-0.445

# As entered above:
# For log2 fold change, NF1 (peptide sequence: KVAQLAVINSLEK, peptide start residue: 206) (UniProt P21359) has -0.73
# For log2 fold change, UCHL3 (peptide sequence: FMERDPDELR, peptide start residue: 212) (UniProt P15374) has -0.442
